Assay results published in PubChem BioAssay AID540276 (National Center for Advancing Translational Sciences (NCATS), 2011).
Several values for one entry are separate records, joined by “and”; a condition that tells them apart may be missing. Identical values can stand only once. The campaign covered roughly 300,000 compounds. About 5,400 (1.8%) were called active. The shares of active, inactive and inconclusive entries below differ from those in the screen. Calls come from the whole dose curve; tested in HEK293 cells. A potency beside an inconclusive call is a rough fit, not a confirmed value. Where a structure was tested more than once in an assay, its records may differ in their call.

Assay: qHTS for inhibitors of binding or entry into cells for Marburg Virus
Settings: Marburg virus pseudotyped entry inhibition, cell reporter; activity change, negative = inhibition: at 37.8 µM (top of the series) unless noted
% is set by controls: 0 for no effect and ±100 for the full control effect; potency is the fitted concentration of half-maximal effect.

Question: With O=C(CN1CCC(n2nnc3cc(F)ccc32)CC1)Nc1ccccc1N1CCOCC1 as the compound, how does the Potency read?
Answer: active: 13 µM

Question: For CCOC(=O)c1sc2nc(C)nc(SC(C)C(=O)N(C)c3ccccc3)c2c1C (centres undefined), which Potency is on record?
Answer: inconclusive: 15.8 µM [inhibitor, single point]

Question: Which “activity change, negative = inhibition” value does the source give for Cc1cc(/C=C2\C(=O)NC(=O)N(c3ccc(F)cc3)C2=O)c(C)n1-c1cccc(C(=O)O)c1 here?
Answer: inactive: 18.3% [at 46.1 µM]

Question: With CCn1ccnc1CN1CCCC(C(=O)c2cccc(C(F)(F)F)c2)C1 (centres undefined) as the compound, how does the Potency read?
Answer: inconclusive: 35.5 µM [inhibitor, single point]

Question: Which Potency does the source give for Cc1ccccc1C(=O)O/N=C(\c1ccccc1)c1ccccn1 here?
Answer: inconclusive: 17.8 µM [activator, partial curve, poor fit]

Question: Which Potency does the source give for CCOC(=O)Cn1c(=N)n(CCOc2ccc(OC)cc2)c2ccccc21 here?
Answer: inactive and inconclusive: 35.5 µM [activator, partial curve, poor fit]

Question: With CCOc1ccc2nc(SCC(=O)c3ccc(Cl)s3)sc2c1 as the compound, how does the “activity change, negative = inhibition” value read?
Answer: inactive: 14.1%

Question: With O=C(COC(=O)CNS(=O)(=O)c1ccc(F)c(F)c1F)NCCc1ccccc1 as the compound, how does the “activity change, negative = inhibition” value read?
Answer: inactive: 6.19%

Question: With N#CC(=C(O)c1ccc(S(=O)(=O)N(CCCl)CCCl)cc1)c1nc2ccccc2[nH]1 as the compound, how does the Potency read?
Answer: inconclusive: 1.58 µM [activator, partial curve, poor fit]

Question: Which Potency does the source give for Cc1ccc(/C=N/N2CCN(C3c4ccccc4-c4ccccc43)CC2)s1 here?
Answer: inconclusive: 22.4 µM [activator, partial curve, poor fit]

Question: For Cc1cc(C)n(-c2ccc(C(=O)OCC(=O)N(CC(C)C)C3CCS(=O)(=O)C3)cc2)n1 (centres undefined), which “activity change, negative = inhibition” value is on record?
Answer: inactive: 21.3%

Question: Which “activity change, negative = inhibition” value does the source give for O=[N+]([O-])c1cc(Cl)ccc1Sc1ccccn1 here?
Answer: inactive: -27.7% [at 46.1 µM]

Question: Which “activity change, negative = inhibition” value does the source give for CC(C)(C)S(=O)(=O)/C(C#N)=N/Nc1ccc(Cl)cc1 here?
Answer: inactive: -16.2% [at 46.1 µM]

Question: With C=CCn1c(-c2ccc(Cl)cc2)c[nH]c1=S as the compound, how does the Potency read?
Answer: inconclusive: 0.206 µM [inhibitor, single point]

Question: Which Potency does the source give for O=C1C=C(Nc2ccc(Cl)cc2)CC(c2ccc(Cl)cc2)C1 (centres undefined) here?
Answer: inconclusive: 18.3 µM [inhibitor, partial curve, poor fit]

Question: Which Potency does the source give for COc1ccc2cc3c(N)c(C(=O)N4CCCC4)sc3nc2c1 here?
Answer: inconclusive: 0.794 µM [activator, full curve, poor fit]

Question: With CN1CCN(c2ccccc2NC(=O)c2ccc(N3CCOCC3)c([N+](=O)[O-])c2)CC1 as the compound, how does the Potency read?
Answer: inconclusive: 0.447 µM [inhibitor, full curve, poor fit]

Question: For CCOC(=O)c1[nH]c(C)c(C(=O)OC(C)C(=O)Nc2ncc(Cl)cc2Cl)c1C (centres undefined), which Potency is on record?
Answer: inconclusive: 20 µM [inhibitor, partial curve, poor fit]

Question: Which “activity change, negative = inhibition” value does the source give for Cc1ccsc1/C=C1/SC(=O)N(CC(=O)N2CCCC2)C1=O here?
Answer: inactive: 14% [at 46.1 µM]

Question: Which Potency does the source give for Cc1cs/c(=N\N=C\c2cccc([N+](=O)[O-])c2)n1Cc1ccco1 here?
Answer: inconclusive: 0.0891 µM [activator, full curve, poor fit]

Question: Which “activity change, negative = inhibition” value does the source give for COc1cc(C(=O)Nc2ccc(NC(=O)C3CC3)nc2)cc(OC)c1OC here?
Answer: inactive: -6.45% [at 46.1 µM]

Question: For COCCCNS(=O)(=O)c1ccc(Oc2ncc(C(F)(F)F)cc2Cl)cc1, which Potency is on record?
Answer: inconclusive: 25.9 µM [inhibitor, partial curve, poor fit]

Question: With O=C1CCCC/C1=C/Nc1ccc(C(=O)O)cc1 as the compound, how does the Potency read?
Answer: inconclusive: 20.6 µM [activator, single point]

Question: For NC(=O)c1ccsc1NC(=O)COC(=O)[C@@H]1CCCN1C(=O)c1cccs1, which “activity change, negative = inhibition” value is on record?
Answer: inactive: 4.11% [at 46.1 µM]

Question: For CSc1ccc(/C=N/NC(=O)c2ccc(O)cc2)cc1, which Potency is on record?
Answer: inconclusive: 35.5 µM [inhibitor, single point]

Question: With CC1CN/C(=C\C(=O)c2ccc(Br)cc2)C(=O)N1 (centres undefined) as the compound, how does the Potency read?
Answer: active: 2.24 µM

Question: With CN(C)CCC(=O)N1c2ccccc2Sc2ccc(Cl)cc21 as the compound, how does the Potency read?
Answer: inconclusive: 11.2 µM [inhibitor, partial curve, poor fit]

Question: For O=C(Nc1cc(Cl)cc(Cl)c1)N1CCN(C(=O)C2CCCO2)CC1 (centres undefined), which “activity change, negative = inhibition” value is on record?
Answer: inactive: 12.5%

Question: Which Potency does the source give for CC1(C)C(=O)Nc2ccccc2N1C(=O)CN1C(=O)C(=O)N(C2CCCC2)C1=O here?
Answer: inconclusive: 12.6 µM [activator, single point]

Question: Which Potency does the source give for N#C/C(=C\Nc1ccccc1O)c1nc2ccccc2o1 here?
Answer: inconclusive: 8.2 µM [inhibitor, single point]

Question: Which Potency does the source give for CCCCn1c(N)c(N(CCC(C)C)C(=O)Cc2ccc(S(=O)(=O)N3CCOCC3)s2)c(=O)[nH]c1=O here?
Answer: inconclusive: 35.5 µM [activator, single point]

Question: For COc1ccc(-c2csc(Nc3cccc(C)n3)n2)cc1, which Potency is on record?
Answer: inconclusive: 15.8 µM [inhibitor, single point]

Question: For CC(=O)Oc1ccccc1C1=NN(C(=O)/C=C/c2ccccc2)C(c2ccccc2)C1 (centres undefined), which Potency is on record?
Answer: inconclusive: 11.2 µM [inhibitor, single point]

Question: For CCOC(=O)c1sc(NC(=O)CCN2C(=O)c3ccccc3C2=O)c(C(=O)OCC)c1C, which “activity change, negative = inhibition” value is on record?
Answer: inactive: 22.2%

Question: Which Potency does the source give for C=C(C)COc1ccc(-c2[nH]ncc2-c2ccc(OC)c(OC)c2)c(O)c1 here?
Answer: active: 1.58 µM

Question: For O=C(/C=C/c1ccco1)Nc1ccccn1, which Potency is on record?
Answer: inconclusive: 3.16 µM [inhibitor, partial curve, poor fit]

Question: Which Potency does the source give for CC1CCCN(C(=O)c2ccc(CSc3nc4ccncc4n3Cc3ccccc3)cc2)C1 (centres undefined) here?
Answer: inconclusive: 3.55 µM [activator, single point]

Question: Which Potency does the source give for COc1cccc(/C=N/Nc2nn3cnnc3c3ccccc23)c1 here?
Answer: inconclusive: 0.316 µM [activator, partial curve, poor fit]

Question: For O=C(O)CCc1ccc(-c2ccc(F)cc2)n1Cc1ccco1, which “activity change, negative = inhibition” value is on record?
Answer: inactive: 11.9%

Question: Which “activity change, negative = inhibition” value does the source give for Cc1cc(C)c(OCC(=O)Nc2nnc(-c3ccco3)o2)c(C)c1 here?
Answer: inactive: 5.51% [at 46.1 µM]

Question: For O=C(NCc1ccco1)c1cccc(S(=O)(=O)N2CCN(Cc3ccccc3)CC2)c1, which “activity change, negative = inhibition” value is on record?
Answer: inactive: -2.71% [at 46.1 µM]

Question: Which Potency does the source give for Cc1ccc2nc(N/N=C\c3ccc([N+](=O)[O-])o3)nc(-c3ccccc3)c2c1 here?
Answer: active: 10 µM

Question: Which Potency does the source give for Cc1ccc(Oc2cc([N+](=O)[O-])cc3c2C(=O)Nc2ccccc2O3)cc1 here?
Answer: inconclusive: 6.31 µM [inhibitor, partial curve, poor fit]

Question: For CCCOC(=O)C1=C(C)NC2=C(C(=O)CC(C)(C)C2)C1c1cccnc1 (centres undefined), which “activity change, negative = inhibition” value is on record?
Answer: inactive: 24.9%
